Data on 1 compound can be found in patent US20120094963A1, “TARGETING PRODRUGS AND COMPOSITIONS FOR THE TREATMENT OF GASTROINTESTINAL DISEASES” (of Queen Elizabeth near Dublin, priority 2008, published 2012).

Structures are written as SMILES.

The nature of the series: Extraction of PC1 and celecoxib from BHI media with two volumes of acetonitrile.

On to `Cc1ccc(-c2cc(C(F)(F)F)nn2-c2ccc(S(=O)(=O)NC(=O)CCc3ccccc3/N=N/c3ccc(O)c(C(=O)O)c3)cc2)cc1` [PC1, 2-Hydroxy-5-(2-3{-oxo-3[4-(5-p-tolyl-3-trifluoromethyl-pyrazol-1-yl)-benzenesulfonylamino]-propyl}-phenylazo)-benzoic acid], for which the “% Concentration recovered” value is, setting by setting: (PC1 1.1 μM in BHI media, Exp1) 131.0%; (PC1 1.1 μM in BHI media, Exp2) 101.4%; (PC1 5.5 μM in BHI media, Exp1) 109.0%; (PC1 5.5 μM in BHI media, Exp2) 105.8%; (PC1 16.6 μM in BHI media, Exp1) 102.8%; (PC1 16.6 μM in BHI media, Exp2) 110.8%. Also, the Average concentration recovered by setting is: (PC1 1.1 μM in BHI media, Exp1) 1.4 µM; (PC1 1.1 μM in BHI media, Exp2) 1.1 µM; (PC1 5.5 μM in BHI media, Exp1) 6.0 µM; (PC1 5.5 μM in BHI media, Exp2) 5.9 µM; (PC1 16.6 μM in BHI media, Exp1) 17.1 µM; (PC1 16.6 μM in BHI media, Exp2) 18.4 µM.
